Measurements taken from the supplement of paper PMC10331698.
± gives the standard deviation of the averaged measurements. Most values lie at the level of the controls, where differences are scatter.

Columns and labels:
Experiment in all cases: level (log10 ratio to DMSO vehicle control); higher = higher biomarker level / cell amount than vehicle control
[1] = compound: O=S(=O)(O)CCC(F)(F)C(F)(F)C(F)(F)C(F)(F)C(F)(F)C(F)(F)C(F)(F)C(F)(F)F [8:2 Fluorotelomer sulfonic acid]; conditions: in DMSO
Description: (§1)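 BioMAP Diversity Plus panel of 12 human primary cell co-culture systems (3C, 4H, LPS, SAg, BT, BF4T, BE3C, CASM3C, HDF3CGF, KF3CT, MyoF, Mphg). Compounds were added 1 h before stimulation and left for 24 h (MyoF 48 h; BT 72 h for soluble read-outs or 6 d for IgG). Biomarkers were read by ELISA, cytotoxicity by SRB, PBMC viability and proliferation by Alamar Blue. Each well value was divided by the mean of 8 DMSO control wells on the same plate and log10 transformed; duplicate blinded samples were tested at 4 concentrations.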

1-(Perfluorohexyl)octane = compound: CCCCCCCCC(F)(F)C(F)(F)C(F)(F)C(F)(F)C(F)(F)C(F)(F)F [1-(Perfluorohexyl)octane]; conditions: in DMSO
Description: as §1

[2] = compound: OCCC(F)(F)C(F)(F)C(F)(F)C(F)(F)C(F)(F)C(F)(F)F [6:2 Fluorotelomer alcohol]; conditions: 2200 nM; in DMSO
Description: as §1

[3] = compound: O=C(O)C(F)(F)C(F)(F)C(F)(F)OC(F)(F)F [Perfluoro(4-methoxybutanoic) acid]; conditions: 2200 nM; in DMSO
Description: as §1

[4] = compound: O=C(O)C(F)(F)C(F)(F)C(F)(F)C(F)(F)C(F)(F)C(F)(F)C(F)(F)C(F)(F)C(F)(F)C(F)F [11-H-Perfluoroundecanoic acid]; conditions: 2200 nM; in DMSO
Description: as §1

[5] = compound: CC(C)(C)C(=O)CC(=O)C(F)(F)C(F)(F)C(F)(F)F [(Heptafluorobutanoyl)pivaloylmethane]; conditions: 2200 nM; in DMSO
Description: as §1

Octafluoroadipic acid = compound: O=C(O)C(F)(F)C(F)(F)C(F)(F)C(F)(F)C(=O)O [Octafluoroadipic acid]; conditions: 2200 nM; in DMSO
Description: as §1

Perfluoroheptanoic acid = compound: O=C(O)C(F)(F)C(F)(F)C(F)(F)C(F)(F)C(F)(F)C(F)(F)F [Perfluoroheptanoic acid]; conditions: in DMSO
Description: as §1

Perfluoropentanoic acid = compound: O=C(O)C(F)(F)C(F)(F)C(F)(F)C(F)(F)F [Perfluoropentanoic acid]; conditions: in DMSO
Description: as §1

[6] = compound: CCN(CCO)S(=O)(=O)C(F)(F)C(F)(F)C(F)(F)C(F)(F)C(F)(F)C(F)(F)C(F)(F)C(F)(F)F [N-Ethyl-N-(2-hydroxyethyl)perfluorooctanesulfonamide]; conditions: in DMSO
Description: as §1

1H,1H-Heptafluorobutanol = compound: OCC(F)(F)C(F)(F)C(F)(F)F [1H,1H-Heptafluorobutanol]; conditions: 2200 nM; in DMSO
Description: as §1

[7] = compound: Cc1ccc(S(=O)(=O)OCC(F)(F)C(F)(F)C(F)(F)C(F)(F)C(F)(F)C(F)F)cc1 [1H,1H,7H-Perfluoroheptyl 4-methylbenzenesulfonate]; conditions: 2200 nM; in DMSO
Description: as §1

[8] = compound: NCC(F)(F)C(F)(F)C(F)(F)C(F)(F)C(F)(F)C(F)(F)C(F)(F)F [1H,1H-Perfluorooctylamine]; conditions: 2200 nM; in DMSO
Description: as §1

Heptafluorobutyramide = compound: NC(=O)C(F)(F)C(F)(F)C(F)(F)F [Heptafluorobutyramide]; conditions: 2200 nM; in DMSO
Description: as §1

[9] = compound: FC(F)(F)C(F)(F)C(F)(F)C(F)(F)C(F)(F)C(F)(F)CC1CO1 [3-(Perfluorohexyl)-1,2-epoxypropane]; conditions: 2200 nM; in DMSO
Description: as §1

[10] = compound: CN(C(=O)C(F)(F)C(F)(F)C(F)(F)F)[Si](C)(C)C [N-Methyl-N-trimethylsilylheptafluorobutyramide]; conditions: 2200 nM; in DMSO
Description: as §1

Test System	level (log10) ([1]; 2200 nM)	level (log10) ([1]; 6700 nM)	level (log10) ([1]; 20000 nM)	level (log10) ([1]; 60000 nM)	level (log10) (1-(Perfluorohexyl)octane; 740 nM)	level (log10) (1-(Perfluorohexyl)octane; 2200 nM)	level (log10) [2]	level (log10) [3]	level (log10) [4]	level (log10) [5]	level (log10) (Octafluoroadipic acid)	level (log10) (Perfluoroheptanoic acid; 2200 nM)	level (log10) (Perfluoroheptanoic acid; 6700 nM)	level (log10) (Perfluoroheptanoic acid; 20000 nM)	level (log10) (Perfluoroheptanoic acid; 60000 nM)	level (log10) (Perfluoropentanoic acid; 2200 nM)	level (log10) (Perfluoropentanoic acid; 6700 nM)	level (log10) (Perfluoropentanoic acid; 20000 nM)	level (log10) (Perfluoropentanoic acid; 60000 nM)	level (log10) ([6]; 2200 nM)	level (log10) ([6]; 6700 nM)	level (log10) ([6]; 20000 nM)	level (log10) (1H,1H-Heptafluorobutanol)	level (log10) [7]	level (log10) [8]	level (log10) (Heptafluorobutyramide)	level (log10) [9]	level (log10) [10]
BE3C:PAI-I	0.029 ± 0.016	0.044 ± 0.014	0.126 ± 0.026	0.0955 ± 0.011	-0.0035 ± 0.047	0.0115 ± 0.0064	-0.0115 ± 0.013	0.01 ± 0.0071	0.043 ± 0.021	-0.039 ± 0.065	0.008 ± 0.017	0.013 ± 0.014	0.007 ± 0.0028	0.027 ± 0.0057	0.042 ± 0.021	0.002 ± 0.04	-0.021 ± 0.0071	-0.02 ± 0.0057	0.015 ± 0.057	-0.0085 ± 0.005	-0.066 ± 0.0071	-0.092 ± 0.017	-0.0225 ± 0.0092	0.0015 ± 0.0078	-0.01 ± 0.017	-0.001 ± 0.016	0.012 ± 0.025	-0.0015 ± 0.029
BE3C:SRB	0.0095 ± 0.023	-0.007 ± 0.0071	-0.017	-0.025 ± 0.0085	0.001 ± 0.0042	-0.0025 ± 0.0035	0.002 ± 0.016	0.001 ± 0.0085	-0.0015 ± 0.0035	-0.004 ± 0.0057	0.0005 ± 0.0092	0.002 ± 0.016	-0.006 ± 0.0071	-0.0065 ± 0.0035	0.0035 ± 0.011	0.012 ± 0.021	0.002 ± 0.0085	-0.0035 ± 0.005	0 ± 0.016	0.0075 ± 0.011	-0.0175 ± 0.011	-0.04 ± 0.0071	0.001 ± 0.0099	-0.002 ± 0.0042	0.013 ± 0.0057	-0.0005 ± 0.0092	0.0055 ± 0.016	-0.003 ± 0.0028
BE3C:tPA	0.0415 ± 0.00071	0.0755 ± 0.021	0.0535 ± 0.0064	-0.021 ± 0.0099	0.041 ± 0.041	0.0145 ± 0.046	0.0115 ± 0.028	-0.0035 ± 0.018	0.102 ± 0.054	-0.0155 ± 0.035	0.0105 ± 0.0078	0.0225 ± 0.06	-0.0205 ± 0.026	-0.0255 ± 0.0078	0.017 ± 0.031	-0.001 ± 0.037	-0.059 ± 0.011	-0.043 ± 0.017	-0.013 ± 0.064	0.12 ± 0.021	0.142 ± 0.0099	-0.036 ± 0.058	0.008 ± 0.0085	0.0135 ± 0.059	-0.0025 ± 0.0092	-0.0105 ± 0.0064	0.0145 ± 0.046	0.004 ± 0.014
BE3C:uPA	-0.001 ± 0.018	0.006 ± 0.0071	0.0055 ± 0.0035	-0.002 ± 0.0028	0.001 ± 0.0014	-0.0045 ± 0.012	0.0015 ± 0.0064	0.007 ± 0.0085	-0.0115 ± 0.0092	-0.009 ± 0.014	-0.0035 ± 0.013	0.004 ± 0.013	-0.002 ± 0.0042	0.0055 ± 0.0035	0.0255 ± 0.015	0.008 ± 0.013	-0.0115 ± 0.0021	-0.013 ± 0.0057	0.004 ± 0.018	0.0035 ± 0.013	-0.0025 ± 0.022	-0.018 ± 0.031	-0.009 ± 0.0028	0.004	0.002 ± 0.0057	-0.01 ± 0.024	-0.0005 ± 0.0078	0.007 ± 0.014
